{"source": "patent US20240393340A1", "about": "“PROGNOSIS AND PREDICTIVE BIOMARKERS AND BIOLOGICAL APPLICATIONS THEREOF” (INSTITUT GUSTAVE ROUSSY, priority 2013, published 2024)", "key": {"[1]": {"system": "A2058", "assay": "WST-1 cell proliferation assay (Example 2)", "type": "cell-based", "conditions": "short-term and long-term proliferation assays", "experimental": "(§1) Cell viability was determined using the WST-1 cell proliferation assay. Data are means±s.d. (n=3). FIG. 7B: Long-term colony formation assay of the indicated cell lines. Cells were grown in the absence or presence of vemurafenib at the indicated concentrations for two weeks. For each cell line, all dishes were fixed at the same time, stained and photographed.\n(§2) Cell viability was determined using the WST-1 cell proliferation assay. Data are means±s.d. (n=4). […] The upper left region of the figure represents increasing degrees of synergy. The minimum and maximum Bliss index values were shown as an interval within square brackets under each isobologram. The Bliss index was calculated as the ratio Observed/Expected where an index=1, […] and >1 indicates additive, antagonistic and synergistic effects, respectively.\n(§3) Cell proliferation was measured using a WST-1 reagent (Roche Applied Science, IN, USA). Melanoma cells were plated (5000 cells per well) in 96-well tissue culture plates. […] Cell proliferation is expressed as percent of the absorbance compared to mock-treated cells.\n(§4) For clonogenic assays, cells were plated at low density (1×10^3 cells per well in a 6-well tissue culture plates) in fresh media. […] After 14 days cells were stained with 0.5% (w/v) crystal violet in 70% ethanol and the number of colonies was counted."}, "[2]": {"system": "Mel624", "assay": "WST-1 cell proliferation assay (Example 2)", "type": "cell-based", "conditions": "short-term and long-term proliferation assays", "experimental": "as §1, §2, §3, §4"}, "[3]": {"system": "eIF4F complex", "assay": "Cap binding assay (m7GTP-Sepharose beads)", "type": "cell-based", "experimental": "FIG. 3: Examination of eIF4F complex formation by the “cap binding assay” in the indicated cell lines. Eluates from the beads (m7G-bound) and total extracts (input) were analyzed on 4% to 12% gradient gel electrophoresis, followed by Western blotting with the indicated antibodies.\nCells were grown for 48 h in 10% Fetal Bovine Serum (FBS) followed by 24 h without FBS. Cells were subsequently grown for 12 h in the absence or the presence of trastuzumab. Cells were harvested and lysed in ice-cold lysis buffer (KCl 150 mM, Hepes pH 7.5 50 mM, DTT 2 mM, Tween 20 0.2%, and Complete Protease Inhibitor Cocktail from Roche). Cell lysates were incubated with 7-methyl-GTP-sepharose 4B beads (Amersham Biosciences) for 2 h at 4° C. Eluates from the beads (7 mG-bound) and total extracts (Tot.) were analyzed on 4-12% gradient gel electrophoresis followed by western blot. Experiments were repeated at least 4 times.\nIn a so-called “cap binding assay”, synthetic m7GTP-Sepharose beads were used to capture eIF4E and its binding partners, eIF4G (called Cap-ON complex) and 4EBP1 (called Cap-OFF complex). The inventors observed that following PLX-4720 treatment, the amount of eIF4E-bound 4EBP1 (Cap-OFF complex) was increased, whereas the quantity of eIF4E-bound eIF4G (Cap-ON complex), i.e. the formation of the active eIF4F complex, was decreased in the two PLX-4720-sensitive cell lines (A375, Mel888) (FIG. 3). In contrast, and consistent with the inventors' hypothesis, the formation of the eIF4F complex was unchanged in the two cell lines (Mel624, A2058) with less sensitivity to PLX-4720."}, "[4]": {"system": "eIF4E-eIF4G and eIF4E-4EBP1 interactions", "assay": "Proximity ligation assay in cell lines", "type": "cell-based", "text": "FIGS. 4A-4B: The interactions between eIF4E and eIG4G (“Cap-ON”) and between […] (“Cap-OFF” interaction) are (FIG. 4A) visualized by the PLA technique and (FIG. 4B) quantified (number of points per 100 nucleus) using ImageJ for the indicated cell lines and treatments.\nFIGS. 5A-5C: The interactions between eIF4E and eIF4G (“Cap-ON”) and between […] (“Cap-OFF” interaction) are (FIG. 5A) visualized by the PLA technique and (FIG. 5B) quantified (number of points per 100 nucleus) using ImageJ for the indicated cell lines and treatments. (FIG. 5C) Cells were treated with increasing concentrations of PLX-4720 for 72 h, and cell viability was determined using CellTiter-Blue by measuring the absorbance at 540 nm in a microplate reader. Error bars show datatstandard error. Means were derived from four replicates (n=4).\nFIGS. 9A-9B: The formation of the eIF4F translation initiation complex is associated with resistance to anti-BRAF inhibitors. FIG. 9A: Quantification of the proximity ligation assay showing the number of red spots (corresponding to the interactions between eIF4E-elF4G or eIF4E-4EBP1) per 100 nuclei (quantified with the Volocity software). Data are means±s.d. (n=3). Significance determined by Mann-Whitney U test (*P<0.05, **P<0.01). FIG. 9B: The eIF4E-eIF4G and eIF4E-4EBP1 interactions detected by in situ proximity ligation assay in vemurafenib (6 μM)-treated (24 h) or untreated HT29 colon cancer cell line and BCPAP thyroid cancer cell line respectively. The interactions were visualised as red fluorescent spots by the scanner Olympus VS120. Cell nuclei were stained with DAPI (blue).\nProximity ligation assays (PLAs) were performed on both fixed and permeabilized transfected cell lines in chamber slides and TMA slides containing melanoma tissue. Following dewaxing and rehydrating of tissue sections, antigen retrieval was performed by heating the slides for 30 min at 95° C. in TE buffer, pH 9. […] The number of in situ PLA signals per cell was counted by semi-automated image analysis. […]"}, "[5]": {"system": "A375 xenografts", "assay": "Growth of tumour xenografts in nude mice", "type": "in vivo", "conditions": "A375 xenografts compared to Mel624 xenografts, drug in diet"}, "[6]": {"system": "eIF4E-eIF4G and eIF4E-4EBP1 interactions", "assay": "In situ proximity ligation assay in xenograft tissue sections", "type": "in vivo, mice", "conditions": "treated A375 xenografts (sensitive) versus treated Mel624 xenografts (resistant)"}, "[7]": {"system": "eiF4F complex", "assay": "Proximity ligation assay in patients' tumor samples", "type": "in vivo, human"}, "[8]": {"system": "melanoma", "conditions": "cited from earlier work"}, "[9]": {"conditions": "sensitive cell lines A375, Mel888"}, "[10]": {"conditions": "sensitive cell lines A375, Mel888, treated vs untreated"}, "[11]": {"conditions": "patients, compared with chemotherapy"}}, "note": "At least one structure is not confirmed: it was looked up by name or label, or the drawing left a doubt."}
{"smiles": "CCCS(=O)(=O)Nc1ccc(F)c(C(=O)c2c[nH]c3ncc(-c4ccc(Cl)cc4)cc23)c1F", "note": "[Vemurafenib]", "values": [{"measurement": "sensitivity of the cell line compared to other cell lines (e.g. A375, Mel888)", "setting": "[1]", "result": "resistant"}, {"measurement": "sensitivity of the cell line compared to other cell lines (e.g. A375, Mel888)", "setting": "[2]", "result": "resistant"}, {"measurement": "formation / disruption of the eIF4F (eIF4E-eIF4G) complex", "setting": "[3]; less sensitive cell lines Mel624, A2058", "result": "not observed"}, {"measurement": "amount of eIF4E-bound 4EBP1 (Cap-OFF complex)", "setting": "[3]; [9]", "result": "increase"}, {"measurement": "quantity of eIF4E-bound eIF4G (Cap-ON complex)", "setting": "[3]; [9]", "result": "decrease"}, {"measurement": "Cap-ON and Cap-OFF interaction", "setting": "[4]; less sensitive / resistant cell lines Mel624, A2058", "result": "not observed"}, {"measurement": "eIF4E-4EBP1 (Cap-OFF) interaction", "setting": "[4]; [10]", "result": "increase"}, {"measurement": "eIF4E-eIF4G (Cap-ON) interaction", "setting": "[4]; [10]", "result": "decrease"}, {"measurement": "sensitivity of xenografts (tumour growth)", "setting": "[5]", "result": "more sensitive"}, {"measurement": "eIF4E-eIF4G interactions as compared to eIF4E-4EBP1 interactions", "setting": "[6]", "result": "fewer eIF4E-eIF4G interactions"}, {"measurement": "ratio of Cap-ON over Cap-OFF complexes", "setting": "[7]; during treatment, Patients #1 and #2", "result": "decreased"}, {"measurement": "ratio of Cap-ON over Cap-OFF complexes", "setting": "[7]; when resistance occurred, Patients #3 to #5", "result": "increased"}, {"measurement": "patients that relapse", "setting": "[8]; after 6 to 12 months of therapy", "result": "~100", "unit": "%"}, {"measurement": "response rate (objective responses)", "setting": "[8]; patients", "result": "more than 50%"}, {"measurement": "overall survival", "setting": "[8]; [11]", "result": 13.6, "unit": "months"}, {"measurement": "progression-free survival", "setting": "[8]; [11]", "result": 6.8, "unit": "months"}, {"measurement": "overall survival hazard ratio", "setting": "[8]; patients, versus chemotherapy", "result": 0.70}, {"measurement": "progression-free survival hazard ratio", "setting": "[8]; patients, versus chemotherapy", "result": 0.38}]}
